No constants are given. Whether binding was seen depends on the method and setting. For some assays here: Binding seen in cells or lysates may run through a third protein. Some entries that bind do so weakly or less than the wild type. For some assays here: Tags and fused reporters may be left off the sequences shown.
Columns and labels:
His-FBXW2 (recombinant) = biological target: T1, His-FBXW2 (recombinant) (UniProt Q9UKT8); assay: pull-down; Ni-NTA bead-bound His-FBXW2 incubated with purified GST or GST-Moesin (methods: 6 h at 4 °C; legend: 2 h at room temperature), washed with IP lysis buffer, eluted with SDS buffer, immunoblot; both purified
T1 sequence: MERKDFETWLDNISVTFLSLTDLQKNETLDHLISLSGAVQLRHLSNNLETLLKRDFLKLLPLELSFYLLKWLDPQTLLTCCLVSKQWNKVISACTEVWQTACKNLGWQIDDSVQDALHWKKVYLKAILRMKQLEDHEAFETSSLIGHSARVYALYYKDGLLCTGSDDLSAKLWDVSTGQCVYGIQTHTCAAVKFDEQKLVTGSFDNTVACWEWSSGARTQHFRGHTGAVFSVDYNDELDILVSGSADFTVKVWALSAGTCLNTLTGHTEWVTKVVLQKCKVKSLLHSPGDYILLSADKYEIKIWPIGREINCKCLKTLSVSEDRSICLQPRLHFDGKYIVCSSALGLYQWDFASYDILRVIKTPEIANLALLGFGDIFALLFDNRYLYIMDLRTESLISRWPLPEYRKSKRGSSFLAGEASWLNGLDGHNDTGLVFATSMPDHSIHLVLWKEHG

By UniProt entry, the sequences of proteins in these tests, tags left out.
UniProt Q13309: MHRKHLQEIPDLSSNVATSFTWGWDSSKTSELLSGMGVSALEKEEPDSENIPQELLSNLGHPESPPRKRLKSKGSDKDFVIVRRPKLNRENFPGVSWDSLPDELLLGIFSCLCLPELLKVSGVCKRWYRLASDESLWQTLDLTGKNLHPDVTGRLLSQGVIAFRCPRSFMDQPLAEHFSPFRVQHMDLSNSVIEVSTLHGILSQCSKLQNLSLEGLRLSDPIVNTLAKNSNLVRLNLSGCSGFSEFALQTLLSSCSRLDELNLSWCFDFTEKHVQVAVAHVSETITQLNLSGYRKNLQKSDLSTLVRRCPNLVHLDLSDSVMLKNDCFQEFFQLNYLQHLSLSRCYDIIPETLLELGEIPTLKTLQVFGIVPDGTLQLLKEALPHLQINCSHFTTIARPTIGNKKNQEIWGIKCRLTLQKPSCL
UniProt P26038: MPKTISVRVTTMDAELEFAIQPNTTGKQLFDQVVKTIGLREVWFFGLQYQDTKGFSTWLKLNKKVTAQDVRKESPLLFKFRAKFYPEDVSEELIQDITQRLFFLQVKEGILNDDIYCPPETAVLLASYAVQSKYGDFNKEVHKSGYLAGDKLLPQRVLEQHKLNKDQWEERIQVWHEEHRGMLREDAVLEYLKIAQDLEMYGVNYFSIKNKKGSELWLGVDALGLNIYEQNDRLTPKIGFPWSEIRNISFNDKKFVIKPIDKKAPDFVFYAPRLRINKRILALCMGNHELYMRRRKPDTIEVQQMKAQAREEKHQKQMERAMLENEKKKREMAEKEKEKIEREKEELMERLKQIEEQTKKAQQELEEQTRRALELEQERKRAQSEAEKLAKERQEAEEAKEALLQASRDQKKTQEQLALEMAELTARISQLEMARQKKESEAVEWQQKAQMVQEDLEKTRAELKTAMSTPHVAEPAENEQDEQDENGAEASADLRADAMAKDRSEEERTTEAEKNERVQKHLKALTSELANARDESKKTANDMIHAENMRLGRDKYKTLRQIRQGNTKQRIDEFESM

[1] = biological target: FLAG-SKP2 (recombinant, purified) (UniProt Q13309); assay: pull-down; recombinant purified GST or GST-Moesin incubated with Ni-NTA bead-bound FLAG-SKP2 for 2 h at room temperature, beads washed, eluted with SDS buffer, immunoblot; both purified
[2] = biological target: T2, F-box and WD repeat-containing protein 2 (FBXW2), endogenous (human (endogenous in MCF7 and MDA-MB-231)) (UniProt Q9UKT8); assay: co-IP; endogenous proteins; MCF7 (and MDA-MB-231) whole-cell lysates immunoprecipitated with anti-IgG or anti-FBXW2 antibody, immunoblot
T2 sequence: T1 sequence

FLAG-FBXW2, full length = biological target: T3, FLAG-FBXW2, full length (UniProt Q9UKT8); assay: co-IP; MCF7 cells transfected with vector, FLAG-FL-FBXW2 or FLAG-∆F-FBXW2 36 h, 5 µM MG132 6 h; anti-FLAG immunoprecipitation, immunoblot (Fig. 4E); also FLAG-FBXW2 with or without 5 µM AKT inhibitor 12 h or AKT silencing (Fig. 6D)
T3 sequence: T1 sequence

[3] = biological target: SKP2, endogenous (human (endogenous in MCF7)) (UniProt Q13309); assay: co-IP; endogenous proteins; MCF7 whole-cell lysates immunoprecipitated with anti-IgG or anti-SKP2 antibody, immunoblot

## GST-Moesin (recombinant) (from UniProt P26038 1-577)
His-FBXW2 (recombinant)
  binding: binds
[1]
  binding: binds

## Membrane-organizing extension spike protein (Moesin), endogenous (from UniProt P26038 1-577)
[2]
  binding: binds
FLAG-FBXW2, full length
  binding: binds
[3]
  binding: binds

Source: paper PMC10517019
